From patent US5359075A, “Quinophthalone compound” (Mitsui Toatsu Chemicals, Incorporated, priority 1991, dated 1994)

Experiments:
[1] = Resin coloring suitability test: bleeding properties; conditions: 0.02 pts. wt., vinyl chloride plate, 5 kg/cm^2, 90° C. for 5 hr; for Bleeding properties (B), ABS: Acrylonitrile/butadiene/styrene; for Bleeding properties (B), PC: Polycarbonate; for Bleeding properties (B), PET: Polyethylene glycol terephthalate; for Bleeding properties (B), PS: Polystyrene
Procedure: For the compounds (B, C, D, F, G and H), a resin coloring suitability test was conducted.
B: Bleeding properties: A colored plate was superposed upon a vinyl
chloride plate, and a pressure of 5 kg/cm^2 was applied thereto and a
treatment was then carried out at 90° C. for 5 hr. Afterward, the
soil on the vinyl chloride plate was evaluated by a gray scale.
Heat resistance and bleed resistance: […]
judgement, and the fifth grade or more was denoted by .circleincircle. an
the third to fifth grades by .largecircle..

[2] = Dichroic ratio / liquid crystal display element in liquid crystal mixture E-8; conditions: for color of display device during applying no voltage: liquid crystal E-8, no voltage; for electrode parts when the voltage was applied: liquid crystal E-8, voltage applied
Procedure: Each of the dyestuffs of Examples 12 and 13 was added to 9.8 parts of a liquid crystal mixture of a trade name E-8 made by Merck AG, and the mixture was then heated up to about 60° C. to completely dissolve the dyestuff. After cooling, the solution was poured into a liquid crystal display element, and it was then hermetically sealed.
Each sample was put on a light path of a spectrophotometer, and an absorbance A was measured by applying straight polarized light to the liquid crystal in parallel with the arrangement of the liquid crystal and an absorbance A' was measured by applying straight polarized light to the liquid crystal at a right angle to the arrangement of the liquid crystal. By the use of the thus measured absorbances A and A', a dichroic ratio was calculated in accordance with the following formula: […]
Furthermore, as comparative preparation examples, otherwise the same liquid crystals as mentioned above were prepared from compounds for comparison represented by the following formulae (K) and (L).

SMILES	Bleeding properties (B), ABS [1]	Bleeding properties (B), PC [1]	Bleeding properties (B), PET [1]	Bleeding properties (B), PS [1]	Dichroic Ratio ([2]; A/A', liquid crystal E-8)	contrast ([2]; liquid crystal E-8)	color of display device during applying no voltage [2]	electrode parts when the voltage was applied [2]
CC1CN=C(c2ccc3c(c2)C(=O)C(c2nc4ccccc4cc2O)C3=O)O1 (stereo not drawn) [B]	.largecircle. (the third to fifth grades)	.largecircle. (the third to fifth grades)	.largecircle. (the third to fifth grades)	.largecircle. (the third to fifth grades)				
CC(C)c1nnc(-c2ccc3c(c2)C(=O)C(c2nc4ccccc4cc2O)C3=O)o1 (stereo not drawn) [C]	.largecircle. (the third to fifth grades)		.largecircle. (the third to fifth grades)					
CC(C)c1ccc2nc(C3C(=O)c4ccccc4C3=O)c(O)cc2c1 [D]	.largecircle. (the third to fifth grades)		.circleincircle. (the fifth grade or more)					
CCCCCCCCOc1ccc(-c2ccc(N3C(=O)c4cc5c(cc4C3=O)C(=O)C(c3nc4ccc(C(C)C)cc4cc3O)C5=O)cc2)cc1 [Example 12]					8.5	good contrast	sharp and deep yellow	colorless
Cc1ccc2oc(-c3ccc(-c4ccc(N5C(=O)c6cc7c(cc6C5=O)C(=O)C(c5nc6ccc(C(C)C)cc6cc5O)C7=O)cc4)cc3)nc2c1 [Example 13]						good contrast	sharp and deep yellow	colorless
CCCCN(CCCC)C(=O)c1ccc2c(c1)C(=O)C(c1nc3ccc(C(C)C)cc3cc1O)C2=O (stereo not drawn) [F]	.circleincircle. (the fifth grade or more)	.circleincircle. (the fifth grade or more)	.circleincircle. (the fifth grade or more)	.circleincircle. (the fifth grade or more)				
CCC1(CO)COC(c2ccc3c(c2)C(=O)C(c2nc4ccc(C(C)C)cc4cc2O)C3=O)=N1 (stereo not drawn) [G]	.circleincircle. (the fifth grade or more)	.circleincircle. (the fifth grade or more)	.circleincircle. (the fifth grade or more)	.circleincircle. (the fifth grade or more)				
CCC1(COC(=O)C(C)C)COC(c2ccc3c(c2)C(=O)C(c2nc4ccc(C(C)C)cc4cc2O)C3=O)=N1 (stereo not drawn) [H]	.circleincircle. (the fifth grade or more)	.circleincircle. (the fifth grade or more)	.circleincircle. (the fifth grade or more)	.circleincircle. (the fifth grade or more)				

Some entries repeat one wording, which the source may state once for all of them.
